These are yes or no findings as the source states them, for the method shown. In cells and extracts the contact can be indirect. Where a sequence is shown, tags or fusion partners need not be part of it.
Target: T1, MYC-tagged wild-type SMOC2 (SPARC-related modular calcium binding 2) (human) (UniProt Q9H3U7)
T1 sequence: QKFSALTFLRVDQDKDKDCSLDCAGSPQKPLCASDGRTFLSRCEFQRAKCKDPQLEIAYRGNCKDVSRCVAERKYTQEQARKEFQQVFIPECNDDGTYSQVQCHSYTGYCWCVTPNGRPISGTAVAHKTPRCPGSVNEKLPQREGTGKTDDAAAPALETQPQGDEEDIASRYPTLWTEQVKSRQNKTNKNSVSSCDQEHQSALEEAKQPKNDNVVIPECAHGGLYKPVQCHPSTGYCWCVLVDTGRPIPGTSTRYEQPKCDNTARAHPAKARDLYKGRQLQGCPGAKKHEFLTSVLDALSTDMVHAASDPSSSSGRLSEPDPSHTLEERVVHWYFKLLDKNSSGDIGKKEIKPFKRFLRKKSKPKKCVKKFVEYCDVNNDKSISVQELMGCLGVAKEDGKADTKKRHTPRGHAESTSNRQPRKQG
Test: co-IP

binding: no binding
Substance: HA-tagged BMPR1A (receptor)

— doi:10.1101/2020.01.27.921825
